The values that follow come from doi:10.1101/606368.

Amino acid sequences for entries named in this document (tags omitted).
UniProt P08799: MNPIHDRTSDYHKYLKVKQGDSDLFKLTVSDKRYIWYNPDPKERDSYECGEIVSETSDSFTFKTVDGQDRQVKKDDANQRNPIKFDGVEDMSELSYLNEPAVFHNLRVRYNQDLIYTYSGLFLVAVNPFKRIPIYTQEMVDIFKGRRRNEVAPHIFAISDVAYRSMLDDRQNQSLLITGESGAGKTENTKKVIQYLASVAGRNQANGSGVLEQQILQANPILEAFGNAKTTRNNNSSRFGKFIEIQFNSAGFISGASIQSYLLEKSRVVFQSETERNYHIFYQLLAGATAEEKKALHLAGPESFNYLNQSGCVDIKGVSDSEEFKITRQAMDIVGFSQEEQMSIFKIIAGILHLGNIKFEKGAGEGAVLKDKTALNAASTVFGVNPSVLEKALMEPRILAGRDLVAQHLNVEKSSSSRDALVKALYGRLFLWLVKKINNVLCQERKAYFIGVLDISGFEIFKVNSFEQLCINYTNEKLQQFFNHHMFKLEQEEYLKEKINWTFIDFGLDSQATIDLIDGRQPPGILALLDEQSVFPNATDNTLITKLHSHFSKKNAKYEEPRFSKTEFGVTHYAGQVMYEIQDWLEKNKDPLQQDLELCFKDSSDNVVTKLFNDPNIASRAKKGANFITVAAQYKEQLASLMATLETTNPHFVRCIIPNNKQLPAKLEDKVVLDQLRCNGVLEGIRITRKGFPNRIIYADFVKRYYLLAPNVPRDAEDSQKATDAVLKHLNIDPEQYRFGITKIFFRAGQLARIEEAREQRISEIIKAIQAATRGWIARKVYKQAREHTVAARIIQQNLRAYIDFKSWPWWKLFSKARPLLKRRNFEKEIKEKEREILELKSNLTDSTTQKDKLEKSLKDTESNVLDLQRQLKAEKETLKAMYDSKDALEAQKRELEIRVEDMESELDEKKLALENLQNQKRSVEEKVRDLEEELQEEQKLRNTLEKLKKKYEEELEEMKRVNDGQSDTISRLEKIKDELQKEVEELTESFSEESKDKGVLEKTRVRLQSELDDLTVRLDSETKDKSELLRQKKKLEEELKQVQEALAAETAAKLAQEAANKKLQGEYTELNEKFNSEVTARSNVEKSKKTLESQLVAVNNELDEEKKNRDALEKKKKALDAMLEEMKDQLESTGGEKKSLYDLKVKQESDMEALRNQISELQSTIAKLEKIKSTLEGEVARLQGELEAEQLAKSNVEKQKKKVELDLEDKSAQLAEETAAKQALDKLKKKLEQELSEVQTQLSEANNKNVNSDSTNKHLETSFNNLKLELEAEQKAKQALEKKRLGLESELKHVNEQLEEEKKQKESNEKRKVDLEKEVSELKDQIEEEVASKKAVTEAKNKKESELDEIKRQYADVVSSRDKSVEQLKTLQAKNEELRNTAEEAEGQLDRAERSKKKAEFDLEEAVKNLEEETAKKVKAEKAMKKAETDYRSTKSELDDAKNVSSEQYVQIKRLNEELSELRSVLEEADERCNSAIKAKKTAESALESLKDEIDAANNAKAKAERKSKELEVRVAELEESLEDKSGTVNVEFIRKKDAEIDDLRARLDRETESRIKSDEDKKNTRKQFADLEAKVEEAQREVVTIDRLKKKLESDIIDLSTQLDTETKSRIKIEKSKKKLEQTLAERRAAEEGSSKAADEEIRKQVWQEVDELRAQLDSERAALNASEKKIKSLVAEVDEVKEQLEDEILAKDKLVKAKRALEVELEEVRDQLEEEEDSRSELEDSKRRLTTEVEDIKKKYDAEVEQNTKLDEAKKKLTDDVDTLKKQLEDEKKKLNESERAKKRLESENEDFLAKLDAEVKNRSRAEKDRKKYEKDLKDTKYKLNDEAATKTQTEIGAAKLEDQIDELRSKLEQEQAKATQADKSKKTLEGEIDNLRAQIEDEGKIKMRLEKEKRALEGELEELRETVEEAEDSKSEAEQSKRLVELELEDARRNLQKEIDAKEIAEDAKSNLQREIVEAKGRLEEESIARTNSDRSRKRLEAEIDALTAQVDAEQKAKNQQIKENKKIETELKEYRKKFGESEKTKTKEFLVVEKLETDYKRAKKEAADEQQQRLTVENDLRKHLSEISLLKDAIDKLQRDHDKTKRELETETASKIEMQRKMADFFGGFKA

No constants are given. Whether binding was seen depends on the method and setting. Some binding calls cover weakened binding; strength is not graded here.

The test concerns the target Dictyostelium myosin II heavy chain (Dictyostelium) (UniProt P08799). The test can be described thus: negative-stain EM with 2D class averages.

As for “Dictyostelium myosin II heavy chain (from UniProt P08799 1-2116)”, the binding result is “binds”.
